According to PubChem BioAssay AID504834 (National Center for Advancing Translational Sciences (NCATS), 2011):
The campaign covered roughly 320,000 compounds. About 22,000 (6.9%) were called active. This list was built around the results that the source calls inconclusive (neither active nor inactive); the mix of calls is not that of the screen. Calls follow the shape of the dose curve; as a rule, active = well fitted inhibition curve with a large enough effect; inconclusive = small, poorly fitted or top-dose-only effect, or another doubt; inactive = no such curve, though single readings can be large or run the other way. Potencies of inconclusive entries are doubtful fits and often do not repeat.

Test: Primary qHTS for delayed death inhibitors of the malarial parasite plastid, 96 hour incubation
Settings: P. falciparum luciferase reporter growth; series mostly up to 28.7 µM; activity change, negative = inhibition: at the top concentration
Method in brief: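 Delayed-death screen, second-generation endpoint: infected erythrocytes, 2% hematocrit, 0.05% parasitemia final; 96 hours at 37 C, 5% CO2; luciferase detection reagent; luminescence decrease equals reduced growth.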
% is scaled to controls: 0 for no effect and ±100 for the full control effect; potency is read from the fitted curve at half-maximal effect.

SMILES	activity change, negative = inhibition	Potency
COc1ccc(/C(N)=N/OC(=O)c2ccc(Br)o2)cc1	inactive: -4.01%	–
CCCCNC(=O)CSc1nc2ccc(NC(=O)CSc3nnc(N)s3)cc2s1	–	inconclusive: 4.15 µM [inhibitor, full curve]
CCOC(=O)N1CCC(NC(=O)CCC(=O)N2CC(C)Oc3ccccc32)CC1 (centres undefined)	–	inconclusive: 0.465 µM [inhibitor, partial curve, poor fit]
CC(C)(C)C(=O)NNc1nc(-c2ccccc2)c2cc(Br)ccc2n1	inactive: -1.59%	–
Cc1cccc(N2CCN(C(=O)c3ccc(Cl)c(S(=O)(=O)NCc4ccco4)c3)CC2)c1C	–	inconclusive: 10.4 µM [inhibitor, single point]
O=[N+]([O-])c1cccc(CNCc2ccccc2)c1	inactive: -31.6%	–
O=[As](O)(O)c1ccc(N=Nc2ccc(O)cc2)cc1	–	active: 2.94 µM
O=C(O)c1ccccc1-c1nc2ccccc2[nH]1	–	inconclusive: 18.5 µM [inhibitor, single point]
COc1ccc(C(=O)N2CCCC(CNC(=O)c3ccc(F)cc3)C2)cc1OC (centres undefined)	–	inconclusive: 10.4 µM [inhibitor, single point]
O=C1c2ccccc2C(Nc2ccc3nc(-c4cccnc4)[nH]c3c2)N1Cc1ccco1 (centres undefined)	–	inconclusive: 18.5 µM [inhibitor, partial curve, poor fit]
CCOc1ccc(-c2cnc3n2CCCCC3)cc1	–	inconclusive: 3.29 µM [inhibitor, partial curve, poor fit]
O=[N+]([O-])C(/C=C(\Cl)[N+](=O)[O-])=C1N(Cc2ccc(Cl)nc2)CCN1Cc1ccc(Cl)nc1	–	active: 6.57 µM
O=S(=O)(Nc1ncccn1)c1ccc(NC(=S)NCc2ccco2)cc1	inactive: 47.7%	–
CCOC(=O)C1(CC2CCCCO2)CCN(Cc2cccnc2)CC1 (centres undefined)	–	inconclusive: 18.5 µM [inhibitor, single point]
Cc1ccc(Cn2c(CN3CCN(C(=O)c4ccco4)CC3)nc3c2c(=O)n(C)c(=O)n3C)cc1	–	inconclusive: 0.0738 µM [inhibitor, full curve, poor fit]
N#Cc1nc(-c2cccc(Cl)c2)oc1NCc1cccnc1	–	inconclusive: 5.86 µM [inhibitor, partial curve, poor fit]
O=C(N/N=C/c1ccc2c(c1)OCO2)c1ccc(COc2cccc3cccnc23)cc1	–	inconclusive: 18.5 µM [inhibitor, single point]
Clc1cccc(CNc2nc(-c3cccnc3)nc3ccccc23)c1	–	inconclusive: 5.86 µM [inhibitor, partial curve]
CN(Cc1ccon1)C(=O)C1CCC(=O)N(CCc2ccc(Cl)cc2)C1 (centres undefined)	–	inconclusive: 0.208 µM [inhibitor, partial curve, poor fit]
Cc1ccc(C2=NN(C(=O)CSc3nc4ncc(Cl)cc4[nH]3)C(c3ccco3)C2)cc1 (centres undefined)	–	active: 11.7 µM
CCCCn1c(=O)c(C(=O)NCc2ccccc2OC)c(O)c2ccccc21	–	inconclusive: 18.5 µM [inhibitor, single point]
O=C1OCCN1P(=O)(c1ccccc1)c1ccccc1	–	inconclusive: 0.0026 µM [inhibitor, full curve, poor fit]
COc1cc(NC(=O)C2CCN(S(=O)(=O)c3ccc4[nH]c(=O)oc4c3)CC2)cc(OC)c1	–	inconclusive: 11.7 µM [inhibitor, single point]

SMILES	activity change, negative = inhibition	Potency
CCCC(NS(=O)(=O)c1ccc(OC)cc1)C(=O)O (centres undefined)	–	inconclusive: 16.5 µM [inhibitor, single point]
O=S(=O)(Cc1ccc(Cl)cc1)c1ccccc1-c1nnc(-c2ccccc2)o1	inactive: -1.02%	–
COc1cc(OC)cc(-c2nnc(Nc3nc4c(F)cccc4s3)o2)c1	–	active: 11.7 µM
CCc1cc(C(=O)NNC(=O)CCN2CCN(c3ccccc3)CC2)sc1C	inactive: 28.7%	–
COc1ccc(-n2c(=O)c(CCC(=O)NCCc3ccccc3F)nc3ccccc32)cc1	–	inconclusive: 4.15 µM [inhibitor, partial curve, poor fit]
CCC(C)n1cnc2c(c1=O)c1nc3ccccc3nc1n2Cc1ccccc1OC (centres undefined)	–	inconclusive: 7.38 µM [inhibitor, partial curve, poor fit]
COc1cc(-c2nnc(NC(=O)CCS(=O)(=O)c3ccc(F)cc3)o2)cc(OC)c1OC	–	inconclusive: 1.17 µM [inhibitor, partial curve, poor fit]
COc1ccc(C(=O)NCC(=O)N/N=C/c2ccc(C)o2)cc1OC	inactive: 6.18%	–
COc1ccccc1Cc1nc(-c2cccnc2)no1	inactive: 6%	–
Cn1cc(S(=O)(=O)N2CCc3ccccc32)cc1C(=O)Nc1ccc(Cl)cc1	inactive: 32.8%	–
COc1cccc(-c2c(C(=O)N/N=C/c3ccc(C)o3)nnn2-c2nonc2N)c1	–	inconclusive: 5.22 µM [inhibitor, partial curve]
O=C(NCC1CCCO1)c1cccc(Oc2ccc([N+](=O)[O-])cc2)c1 (centres undefined)	–	inconclusive: 0.522 µM [inhibitor, full curve, poor fit]
COc1ccc(NC(=O)C2CCCO2)cc1 (centres undefined)	inactive: 53.7%	–
CCCNC(=O)c1ccc(SC)cc1OC	–	inconclusive: 0.294 µM [inhibitor, full curve, poor fit]
CCCCn1c(N)c(N(CC(C)C)C(=O)CSc2nnc(C)n2-c2ccc(OC)cc2)c(=O)[nH]c1=O	–	inconclusive: 2.08 µM [inhibitor, partial curve, poor fit]
O=[N+]([O-])c1ccc2nc(NCCCO)nc(-c3ccccc3)c2c1	–	active: 11.7 µM
CCOC(=O)c1c(-c2ccco2)csc1NC(=O)COC(=O)c1cnccn1	–	inconclusive: 18.5 µM [inhibitor, single point]
COc1c(/C=N/NC(N)=S)c(C)nn1-c1ccccc1	inactive: -13%	–
CCOc1ccc(OC(=O)c2cccc(S(=O)(=O)N3CCN(C)CC3)c2)cc1	–	inconclusive: 9.28 µM [inhibitor, partial curve, poor fit]
COCCCNc1ncnc2ccc(C)cc12	–	inconclusive: 10.4 µM [inhibitor, single point]
COC(=O)CCCC1=CC2=C(c3ccccc3)C(=O)C(C)(OC(=O)C3CCCC3)C(=O)C2=CN1CCN1CCOCC1 (centres undefined)	–	inconclusive: 11.7 µM [inhibitor, single point]
COc1ccccc1NC(=S)N1CCN(c2cccc(C)c2C)CC1	–	inconclusive: 18.5 µM [inhibitor, single point]
CCn1cc(S(=O)(=O)N2CCc3ccccc3C2)cn1	inactive: 17.2%	–

SMILES	activity change, negative = inhibition	Potency
O=C(Cn1cnc2ccccc2c1=O)Nc1cccc(S(=O)(=O)N2CCCCC2)c1	inactive: -2.35%	–
Cc1cccc(NC2=NC3(CCCCC3)N=C(N)N2)c1C	–	inconclusive: 4.15 µM [inhibitor, partial curve, poor fit]
Cc1ccc(S(=O)(=O)Nc2nc3ccccc3nc2Nc2cccc(S(=O)(=O)N3CCCC3)c2)cc1	–	inconclusive: 1.17 µM [inhibitor, full curve, poor fit]
COc1cc(S(=O)(=O)N(Cc2cccs2)CC2CCCO2)ccc1-n1cnnn1 (centres undefined)	–	active: 4.15 µM
CCN(C(=O)Cn1c(=O)oc2ccccc21)c1c(N)n(Cc2ccccc2)c(=O)[nH]c1=O	–	inconclusive: 18.5 µM [inhibitor, single point]
Cc1c(C(=O)OC(C)C)sc(NC(=O)C2CCCO2)c1C(=O)OC(C)C (centres undefined)	–	active: 9.28 µM
CC(C)CCN1C(Nc2ccccc2)=NC[C@@H]1C	inactive: 1.01%	–
CCN(CC)CCOC(=O)c1ccc(NC(=O)/C=C/c2cccs2)cc1	–	inconclusive: 4.15 µM [inhibitor, partial curve, poor fit]
O=C(c1cc2c(=O)n3ccccc3nc2s1)N1CCc2ccccc2C1	–	inconclusive: 13.1 µM [inhibitor, single point]
O=C1C(=O)N(Cc2ccco2)C(c2cccs2)/C1=C(\O)c1cccc([N+](=O)[O-])c1 (centres undefined)	inactive: 3.31%	–
CC1CCCC(C)N1CCNC(=O)Cn1nc(-c2ccccc2)ccc1=O (centres undefined)	–	inconclusive: 8.28 µM [inhibitor, single point]
O=c1c(/C=N/O)coc2ccc3ccccc3c12	–	inconclusive: 14.7 µM [inhibitor, single point]
COC(=O)[C@H](C)NC(=O)Nc1ccc(S(N)(=O)=O)cc1	–	inconclusive: 1.47 µM [inhibitor, partial curve, poor fit]
COc1ccc(S(=O)(=O)N2CCN(C(=O)COc3ccccc3)CC2)cc1	–	active: 7.38 µM
COC(=O)c1ccc(-n2nnnc2SCC(=O)Nc2cc(OC)ccc2OC)cc1	–	inconclusive: 16.5 µM [inhibitor, single point]
O=C(CCNc1cc(Cl)cc(Cl)c1)c1cccs1	inactive: 111%	–
O=c1[nH]c(CN2CCN(S(=O)(=O)c3ccc4ccccc4c3)CC2)nc2ccccc12	–	inconclusive: 18.5 µM [inhibitor, single point]
Cc1nc(NC(C)c2ccccc2)c2c3c(sc2n1)CCC3 (centres undefined)	–	inconclusive: 18.5 µM [inhibitor, single point]
O=C(O)CC(NC(=O)/C(=C/c1ccccc1)NC(=O)c1ccccc1)c1ccccc1 (centres undefined)	inactive: -2.68%	–
CC(C)c1ccc(NC(=O)COC(=O)CCC(=O)c2cccs2)cc1	inactive: 49.3%	–
NC(=O)c1nsc(C(=O)N(CC(=O)NC2CCCCC2)Cc2ccc(F)cc2)c1N	inactive: 4.32%	–
O=C(CCCN1C(=O)/C(=C/c2cccc(Br)c2)SC1=S)Nc1ccccn1	–	inconclusive: 16.5 µM [inhibitor, single point]
CCc1ccccc1Nc1nn2c(=O)c3ccc(C(=O)NCc4ccccn4)cc3nc2s1	–	inconclusive: 11.7 µM [inhibitor, single point]

An excerpt from above in order of molecular weight, smallest number first.
SMILES	activity change, negative = inhibition	Potency
CC(C)c1ccc(NC(=O)COC(=O)CCC(=O)c2cccs2)cc1	inactive: 49.3%	–
O=C(c1cc2c(=O)n3ccccc3nc2s1)N1CCc2ccccc2C1	–	inconclusive: 13.1 µM [inhibitor, single point]
O=C(O)CC(NC(=O)/C(=C/c1ccccc1)NC(=O)c1ccccc1)c1ccccc1 (centres undefined)	inactive: -2.68%	–
COc1cc(S(=O)(=O)N(Cc2cccs2)CC2CCCO2)ccc1-n1cnnn1 (centres undefined)	–	active: 4.15 µM
Cc1ccc(S(=O)(=O)Nc2nc3ccccc3nc2Nc2cccc(S(=O)(=O)N3CCCC3)c2)cc1	–	inconclusive: 1.17 µM [inhibitor, full curve, poor fit]
